# Primary screen of a compound library

Source: ChEMBL document CHEMBL3988442, “University of Dundee, Small-Polar-MMV Screening Library” (2021).

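Viability assay of Plasmodium falciparum sporozoites; the read-out is not stated. The concentration is filed as 10 mM, unlikely as a test dose, so the dose is not known. Higher reads as lower viability (inferred: compounds with an IC50 in retests scored well above the rest). Strong results were mostly tested again. About 34,000 compounds were tested under these conditions; 0.84% (about 280) showed 50% or more at least once.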

Each number is a percent effect as filed. How 0% and 100% were set is not recorded. Most values in the screen are low, and negative values occur. This is an unselected part of the compounds tested. Two or more numbers in one place are separate tests of the same structure; such repeats can differ widely.

Compound	effect
COCCc1noc(CN2CCOC(Cn3nc(C)cc3C)C2)n1 (stereo not given)	-1.6
CN(Cc1nc2c(cnn2C)c(=O)[nH]1)Cc1ccccc1Cl	13.1
Cc1sc2nc(CCN)nc(N(C)CCCC3CCCO3)c2c1C (stereo not given)	-10.77
Cc1onc(-c2ccncc2)c1C(=O)NC1CCCOC1 (stereo not given)	-1.347
Cc1cc(NC(=O)C(C)N2CCN(c3nc(C)ns3)CC2)on1 (stereo not given)	7.348
O=C(O)C(F)(F)F.O=C(O)C(F)(F)F.O=C(O)C(F)(F)F.[H][C@@]12CN(Cc3ccncc3)C[C@]1([H])OCCN2c1ccc(C)nn1	-13.03
O=C(O)CCc1cc2n(n1)CCCN(C(=O)c1ccc3cc[nH]c3c1)C2	-13.53
Cc1nnc2n1CCN(CCC(=O)Nc1sccc1C#N)C2	1.385
CC(C)CCN(c1cn[nH]c1)S(=O)(=O)c1cccc(C#N)c1	4.94
CCc1ccc(-c2cn3c(C(=O)N[C@H](C(N)=O)[C@@H](C)O)csc3n2)cc1	-5.965
COc1c(Cl)cccc1NCc1csc(NC(C)=O)n1	-0.1304
CC(C)c1nnc2n1CCN(C(=O)COc1ccc(C(N)=O)cc1)C2	4.459
O=C(Cc1ccccn1)N1CCC(c2noc(-c3ccncc3)n2)CC1	10.02
Cc1noc(NC(=O)c2ccc(OC(F)(F)F)cc2)n1	-13.94
CCCn1[nH]cc/c1=N\C(=O)CN1CCc2c(nc(C(C)C)n2C)C1	-1.85
O=C(O)C(F)(F)F.[H][C@@]12CCN(c3nnc(C)s3)C[C@@]1([H])O[C@H](c1nc(C)no1)C2	3.853
CCOc1ccc(-c2c(C#N)c(N)nc3c2COCC3)cn1	2.656
CC(C)(C)n1ncc2c(=O)n(CC(=O)NCc3ccccc3Cl)cnc21	89.9 and 78.88
CN(C)c1cncc(C2CCN(CC(N)=O)CC2)n1	23.29
O=C(O)C(F)(F)F.O=S(=O)(c1cccs1)N1CCCC2(COCCN(c3cccnc3)C2)C1 (stereo not given)	-7.474
CCc1ncc(C(=O)NCCN(C)S(C)(=O)=O)cn1	-24.77
CNCC(=O)N1CCCC(c2cccc(Nc3nc(C)cc(C)n3)n2)C1 (stereo not given)	-0.8294
O=C(C1CC(c2cccc(F)c2)=NO1)N1CCc2ccccc21 (stereo not given)	-9.256
O=C(CN1CCC(c2ccccc2)C1)NCC(F)(F)F (stereo not given)	8.904
[H][C@]12CCN(C(=O)c3cnc(C)cn3)C[C@@]1([H])OCCN(c1ncccn1)C2	8.333
CCC[C@@H]1CN(Cc2cnc3c(S(C)(=O)=O)cnn3c2)C[C@H]1N(C)C	-31.87 and -24.82
CN(CCO)Cc1nnc(C2CCN(C3CCCCC3)CC2)n1C	-3.219
CN(Cc1ccsc1)C(=O)Nc1cccnc1N1CCCC1	3.83
COc1ccccc1C1=NOC(CC2(C(=O)NCCO)CCOCC2)C1 (stereo not given)	8.521
Cc1csc(N2CCCN(C(=O)c3c(C)oc(C)c3C)CC2)n1	-4.657
O=C(NC1CC1)N1CCN(c2cnccn2)CC1	7.138
CN1CCCCC(C2CCN(S(=O)(=O)c3cn(C)cn3)CC2)C1=O (stereo not given)	10.53
O=C(c1cccc2ncccc12)N1CCCN(c2cccnn2)CC1	-540
CCS(=O)(=O)N1CCC2(CC1)CN(Cc1ccccn1)C(=O)CO2.O=C(O)C(F)(F)F	-20.92
Cc1nccc(N(C)Cc2ncc(-c3ccccc3C(=O)O)s2)n1	-4.497
[H][C@]12C[C@@H](CNC(=O)c3ccsc3)O[C@]1([H])CN(C(=O)CO)C2	3.503
Cc1noc(C)c1CN(C)C(=O)NC1CCCN(S(C)(=O)=O)C1 (stereo not given)	9.671
CNC(=O)c1cnc(/C=C/c2cc(OC)cc(OC)c2)s1	-2.255
C[C@@H]1CN(C(=O)Cc2ccsc2)C[C@]12CCN(CCN(C)C)C2=O	1.444
[H][C@@]12CS(=O)(=O)C[C@]1([H])N(Cc1ccc(Cl)cc1)CCN2CCOC	-4.961
CC(C)N(C)CC(=O)N(C)C(c1cccc(F)c1)c1ccccn1 (stereo not given)	11.35
Cc1ccc(C)c(CNC(=O)NC(C)(C(=O)O)c2ccco2)c1 (stereo not given)	4.808
O=C(Cc1cccs1)N1CCn2cc(Cn3cccn3)nc2C1.O=C(O)C(F)(F)F	10.22
Cc1ccc(N2CCCC(NCc3cccc4c3OCCO4)C2)nn1 (stereo not given)	6.08
CC(C(=O)Nc1cccc(N2CCCCC2)c1)n1cncn1 (stereo not given)	13.6
O=S(=O)(CCN1CCCC1Cn1cncn1)c1ccccc1 (stereo not given)	4.794
COc1ccc(-c2cc(C3CCCNC3)ccn2)cc1.Cl (stereo not given)	3.809
Cn1c(Cn2ccnc2)nnc1C1CCN(Cc2cccnc2N)CC1	-0.4479
CCOCC1CN(c2ccncn2)Cc2cnn(CC)c21.O=C(O)C(F)(F)F.O=C(O)C(F)(F)F (stereo not given)	-6.569
Fc1ccc(CN2CCC(c3noc(-c4cnccn4)n3)CC2)cc1F	-3.996
CCOc1ccccc1OC1CCN(C(=O)c2[nH]nc(C)c2Br)CC1	15.46
CCN1CCn2c(C)cnc2C12CCN(C(=O)Cc1ccccc1)CC2.O=C(O)C(F)(F)F.O=C(O)C(F)(F)F	-3.43

Repeated from the top, 7 entries:

- COCCc1noc(CN2CCOC(Cn3nc(C)cc3C)C2)n1 (stereo not given) | -1.6%
- CN(Cc1nc2c(cnn2C)c(=O)[nH]1)Cc1ccccc1Cl | 13.1%
- Cc1sc2nc(CCN)nc(N(C)CCCC3CCCO3)c2c1C (stereo not given) | -10.77%
- Cc1onc(-c2ccncc2)c1C(=O)NC1CCCOC1 (stereo not given) | -1.347%
- Cc1cc(NC(=O)C(C)N2CCN(c3nc(C)ns3)CC2)on1 (stereo not given) | 7.348%
- O=C(O)C(F)(F)F.O=C(O)C(F)(F)F.O=C(O)C(F)(F)F.[H][C@@]12CN(Cc3ccncc3)C[C@]1([H])OCCN2c1ccc(C)nn1 | -13.03%
- O=C(O)CCc1cc2n(n1)CCCN(C(=O)c1ccc3cc[nH]c3c1)C2 | -13.53%